Test results taken from publication PMC6978347.
No constants are given. Whether binding was seen depends on the method and setting.

Sequences of proteins named here, by UniProt entry; tags and fusion partners are left off. Residues count along the entry.
UniProt Q05513, residues 11-101: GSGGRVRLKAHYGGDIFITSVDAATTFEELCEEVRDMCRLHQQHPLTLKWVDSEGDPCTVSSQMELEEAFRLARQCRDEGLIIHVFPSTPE

Biological target: PKCζ^11–101 (pKCζ–PB1) (human) (UniProt Q05513)
Assay: co-sedimentation; sedimentation (pelletation) assay of single purified PB1 domains by ultracentrifugation; soluble and pellet fractions on SDS-PAGE; both purified

PKCζ^11–101 (pKCζ–PB1) (from UniProt Q05513 11-101) (domain or fragment)
binding: no binding
